Assay results reported in doi:10.1101/2024.06.23.24309370.
No constants are given. Whether binding was seen depends on the method and setting. Binding seen in cells or lysates may run through a third protein. Some binding calls cover weakened binding; strength is not graded here.

Protein sequences, listed by entry. Tags and fused reporters are not part of them.
UniProt P67809: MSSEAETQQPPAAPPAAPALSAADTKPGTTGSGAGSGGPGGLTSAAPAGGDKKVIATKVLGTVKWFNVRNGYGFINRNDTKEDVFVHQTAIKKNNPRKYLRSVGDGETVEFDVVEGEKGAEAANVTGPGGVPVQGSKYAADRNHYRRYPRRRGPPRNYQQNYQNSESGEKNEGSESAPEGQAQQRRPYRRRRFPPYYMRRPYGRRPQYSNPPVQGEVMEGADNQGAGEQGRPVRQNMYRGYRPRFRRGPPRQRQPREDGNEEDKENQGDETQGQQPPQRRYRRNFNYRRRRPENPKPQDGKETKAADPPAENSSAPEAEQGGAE
UniProt Q15366: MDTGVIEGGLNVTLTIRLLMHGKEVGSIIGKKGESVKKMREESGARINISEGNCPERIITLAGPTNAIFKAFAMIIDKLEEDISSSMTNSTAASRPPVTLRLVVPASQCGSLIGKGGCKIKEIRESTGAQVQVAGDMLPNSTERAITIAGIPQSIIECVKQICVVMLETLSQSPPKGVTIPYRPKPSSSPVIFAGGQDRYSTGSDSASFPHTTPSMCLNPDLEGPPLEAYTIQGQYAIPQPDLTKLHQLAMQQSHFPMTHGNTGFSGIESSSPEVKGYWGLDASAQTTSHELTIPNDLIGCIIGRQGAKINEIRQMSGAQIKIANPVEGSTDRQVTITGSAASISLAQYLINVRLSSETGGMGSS
UniProt Q15365: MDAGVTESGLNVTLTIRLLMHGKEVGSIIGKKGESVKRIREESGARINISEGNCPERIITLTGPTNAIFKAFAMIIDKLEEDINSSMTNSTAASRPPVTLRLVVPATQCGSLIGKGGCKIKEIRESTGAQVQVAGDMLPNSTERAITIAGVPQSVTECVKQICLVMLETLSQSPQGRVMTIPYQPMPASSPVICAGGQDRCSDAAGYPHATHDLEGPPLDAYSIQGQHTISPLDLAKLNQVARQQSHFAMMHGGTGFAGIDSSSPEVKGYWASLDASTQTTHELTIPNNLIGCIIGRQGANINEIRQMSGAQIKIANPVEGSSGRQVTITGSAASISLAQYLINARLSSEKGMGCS
UniProt Q9Y2T7: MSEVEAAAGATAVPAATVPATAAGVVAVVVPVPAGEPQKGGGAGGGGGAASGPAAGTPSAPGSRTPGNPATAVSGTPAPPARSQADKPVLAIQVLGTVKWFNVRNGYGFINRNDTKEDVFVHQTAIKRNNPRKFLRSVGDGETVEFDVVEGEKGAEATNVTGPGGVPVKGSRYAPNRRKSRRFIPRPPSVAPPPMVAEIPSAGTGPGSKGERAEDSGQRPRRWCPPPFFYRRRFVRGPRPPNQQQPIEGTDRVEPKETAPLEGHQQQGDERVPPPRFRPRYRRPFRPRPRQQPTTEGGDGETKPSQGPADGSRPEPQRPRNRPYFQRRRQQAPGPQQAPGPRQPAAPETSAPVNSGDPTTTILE
UniProt P31749: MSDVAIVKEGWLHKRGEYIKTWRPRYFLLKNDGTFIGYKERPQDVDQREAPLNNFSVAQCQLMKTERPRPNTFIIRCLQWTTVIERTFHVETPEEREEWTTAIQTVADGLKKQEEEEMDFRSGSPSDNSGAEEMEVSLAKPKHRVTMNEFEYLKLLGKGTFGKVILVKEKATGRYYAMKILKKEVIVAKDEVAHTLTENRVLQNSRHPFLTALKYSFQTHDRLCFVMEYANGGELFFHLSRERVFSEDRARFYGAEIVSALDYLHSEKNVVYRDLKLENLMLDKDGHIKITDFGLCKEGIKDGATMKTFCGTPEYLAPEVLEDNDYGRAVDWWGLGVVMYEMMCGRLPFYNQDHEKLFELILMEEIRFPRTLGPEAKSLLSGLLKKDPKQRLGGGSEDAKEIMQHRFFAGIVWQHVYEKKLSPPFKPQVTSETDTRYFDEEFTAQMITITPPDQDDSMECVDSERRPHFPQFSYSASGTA
UniProt Q16665: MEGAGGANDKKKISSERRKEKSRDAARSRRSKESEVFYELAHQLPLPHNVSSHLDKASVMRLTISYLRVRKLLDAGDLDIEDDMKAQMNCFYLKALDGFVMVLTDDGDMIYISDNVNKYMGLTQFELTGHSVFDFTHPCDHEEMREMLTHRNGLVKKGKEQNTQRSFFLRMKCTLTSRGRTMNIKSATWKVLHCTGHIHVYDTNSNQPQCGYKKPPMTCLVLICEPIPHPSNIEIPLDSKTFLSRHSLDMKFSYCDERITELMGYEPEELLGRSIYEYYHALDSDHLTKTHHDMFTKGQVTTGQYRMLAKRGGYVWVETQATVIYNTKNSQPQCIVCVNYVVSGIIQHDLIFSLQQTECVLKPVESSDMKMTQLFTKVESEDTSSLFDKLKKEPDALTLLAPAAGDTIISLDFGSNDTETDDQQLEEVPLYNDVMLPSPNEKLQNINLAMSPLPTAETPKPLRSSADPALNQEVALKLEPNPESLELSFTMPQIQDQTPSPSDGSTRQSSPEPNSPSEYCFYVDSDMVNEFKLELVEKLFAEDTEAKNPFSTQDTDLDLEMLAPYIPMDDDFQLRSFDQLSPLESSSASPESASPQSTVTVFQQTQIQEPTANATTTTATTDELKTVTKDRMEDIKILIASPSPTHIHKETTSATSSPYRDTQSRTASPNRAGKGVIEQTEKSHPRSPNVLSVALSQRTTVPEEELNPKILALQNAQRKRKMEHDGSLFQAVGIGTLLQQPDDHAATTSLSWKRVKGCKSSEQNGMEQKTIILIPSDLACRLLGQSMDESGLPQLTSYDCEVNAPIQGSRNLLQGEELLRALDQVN
UniProt P31751: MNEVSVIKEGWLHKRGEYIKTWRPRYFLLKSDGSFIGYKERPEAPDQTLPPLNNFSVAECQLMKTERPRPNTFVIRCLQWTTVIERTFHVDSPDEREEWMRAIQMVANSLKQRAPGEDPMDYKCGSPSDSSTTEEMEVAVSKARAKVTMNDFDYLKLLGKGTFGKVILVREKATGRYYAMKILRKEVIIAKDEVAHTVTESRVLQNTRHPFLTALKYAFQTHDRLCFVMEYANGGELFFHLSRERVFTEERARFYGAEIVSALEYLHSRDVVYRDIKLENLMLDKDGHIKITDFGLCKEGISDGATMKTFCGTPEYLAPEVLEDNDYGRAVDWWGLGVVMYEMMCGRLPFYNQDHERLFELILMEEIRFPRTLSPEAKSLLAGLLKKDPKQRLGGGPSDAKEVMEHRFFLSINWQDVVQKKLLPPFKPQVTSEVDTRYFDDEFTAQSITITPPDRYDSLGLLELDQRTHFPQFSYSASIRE
UniProt Q9Y243: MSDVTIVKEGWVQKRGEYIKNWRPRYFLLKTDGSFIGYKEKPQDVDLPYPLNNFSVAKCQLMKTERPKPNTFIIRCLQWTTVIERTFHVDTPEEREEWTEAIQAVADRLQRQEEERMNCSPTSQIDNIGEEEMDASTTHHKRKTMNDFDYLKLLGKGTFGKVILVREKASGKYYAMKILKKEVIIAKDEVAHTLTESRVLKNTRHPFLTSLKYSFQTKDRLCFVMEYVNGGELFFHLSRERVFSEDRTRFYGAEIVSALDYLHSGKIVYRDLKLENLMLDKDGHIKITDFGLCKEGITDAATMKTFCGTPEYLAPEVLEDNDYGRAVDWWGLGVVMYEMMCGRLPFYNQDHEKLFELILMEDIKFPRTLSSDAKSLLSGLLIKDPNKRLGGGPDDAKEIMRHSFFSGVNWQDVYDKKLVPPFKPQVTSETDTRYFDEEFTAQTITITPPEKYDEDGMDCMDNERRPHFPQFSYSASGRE

Assays:
Test in all cases: co-IP
[1] = target: 3×FLAG-YBX1 (Y-box binding protein 1) (UniProt P67809)
PCBP2 = PCBP2 (UniProt Q15366)
PCBP1 = PCBP1 (UniProt Q15365)
YBX2 = YBX2 (UniProt Q9Y2T7)
[2] = target: YBX1 (as used in the co-IP with HIF1ɑ) (UniProt P67809)

## AKT1-HA (from UniProt P31749 1-480) (enzyme)
[1]
  binding: binds

## hypoxia inducible factor 1 subunit alpha (HIF1ɑ) (from UniProt Q16665 1-826)
PCBP2
  binding: no binding
PCBP1
  binding: no binding
YBX2
  binding: no binding
[2]
  binding: no binding

## AKT2 (from UniProt P31751 1-481) (enzyme)
[1]
  binding: no binding

## AKT3 (from UniProt Q9Y243 1-479) (enzyme)
[1]
  binding: no binding
